Measurements: patent US20160122426A1 (DONG A SOCIO, published 2016)
Residue numbers refer to the chain shown, from its start. No constants are given. Whether binding was seen depends on the method and setting. Some entries that bind do so weakly or less than the wild type. Values belong to the binder of their own block, whether it stands above or below them.

Protein sequences, listed by entry. Tags and fused reporters are not part of them. Lines headed by an entry give the natural chain unless they say otherwise; changes in a name come on top. Chains listed by the source or under a name are the forms on record and can include a tag or linker.
human VEGF (P15692-4, form named): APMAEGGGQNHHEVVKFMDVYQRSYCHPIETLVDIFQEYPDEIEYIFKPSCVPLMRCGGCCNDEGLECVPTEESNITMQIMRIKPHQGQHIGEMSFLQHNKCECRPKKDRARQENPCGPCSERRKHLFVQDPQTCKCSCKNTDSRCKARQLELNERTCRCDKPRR

Experiments:
[1] = target: T1, human VEGF (human, UniProt P15692-4 27-191); experiment: ELISA, human VEGF coated, anti-human Fc-HRP
T1 construct: Bought recombinant protein; also called hVEGF; human VEGF-A

[2] = target: T1, human VEGF; experiment: ELISA, human VEGF coated, absorbance 650 nm [f]
[3] = target: T1, human VEGF; experiment: ELISA, 0.2 µg/ml VEGF coated, scFv or IgG serially diluted
[4] = target: T2, mouse VEGF (mouse, UniProt Q00731-2 27-190); experiment: as above
T2 construct: Bought recombinant protein; also called mVEGF-A; mouse VEGF-A
T2 sequence (looked up): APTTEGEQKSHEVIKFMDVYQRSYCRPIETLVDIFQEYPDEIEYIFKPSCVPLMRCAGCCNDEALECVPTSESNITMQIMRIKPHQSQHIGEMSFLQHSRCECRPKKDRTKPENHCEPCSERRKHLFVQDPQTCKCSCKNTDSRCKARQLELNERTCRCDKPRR
Experimental: ELISA plates were coated with 0.2 μg/ml of human VEGF and mouse VEGF (R&D systems, USA) respectively, and the purified proteins obtained in Example 5 in the form of scFv expressed by HB2151 or IgG expressed by 293F cells were incubated at serially diluted concentrations.

[5] = target: T1, human VEGF; experiment: ELISA, human VEGF coated, absorbance 650 nm [g]

- binding [1]: binds
- binding [2]: binds
- binding [3]: binds
- binding [4]: binds
B1: HF2-12 (antibody, V domains shown)
VH: EVQLVESGGGLVQPGGSLRLSCAASYSEVRSHGMQWVRQAPGKGLEYVAGISSDGSWFRVAAAVEGRFTISRDDSKNTAYLQMNSLRAEDTAVYYCARDFSTGYGADSIDAWGQGTLVTVSS
VL: DIQMTQSPSSLSASVGDRVTITCSGGSMEPLGYGWYQQKPGKAPKTLIYWDDKRPSGVPSRFSGSRSGTDFTLTISSLQPEDFATYYCGAWEYSGGVGIFGQGTKVEIK

- binding [1]: binds
- binding [3]: binds
- binding [4]: binds
- binding [5]: binds
B2: HF2-24 (antibody, V domains shown)
VH: B1 VH with Y26R, S27F, E28N, V29M, F58V, R59K
VL: B1 VL with M28Q, P30S
